{"source": "patent US11841360B1", "about": "“Systems, devices, and methods for ex vivo assessment of responses to multiple therapeutic agents” (Oregon Health & Science University, priority 2018, dated 2023)", "key": {"EMT6 mouse model": {"tested_on": "EMT6 mouse model", "experiment": "Vaccination (immunization) study with panobinostat-treated tumor cells and re-challenge", "assay_type": "in vivo, BALB/c mice"}, "[1]": {"tested_on": "LPA3 mice (model of ER+ breast cancer)", "experiment": "Systemic (intraperitoneal) drug administration: tumor growth and intratumoral Neuropilin-1 IHC", "assay_type": "in vivo, mouse", "details": "for intratumoral Neuropilin-1: systemic administration, 3 days after drug application; for tumor growth: systemic intraperitoneal injection, vs control"}, "MHC-I on ER+ MCF7 cells": {"tested_on": "MHC-I on ER+ MCF7 cells", "details": "transcriptomic profiles; cited from earlier work"}}, "note": "“Also recorded” adds a separate entry of the source. At least one compound was matched to its structure with a doubt left.", "data": [{"smiles": "Cc1[nH]c2ccccc2c1CCNCc1ccc(/C=C/C(=O)NO)cc1", "note": "[panobinostat]", "values": [{"measurement": "durability of protection against tumor development", "setting": "EMT6 mouse model; after vaccination with drug-killed tumor cells", "value": "not durable after 23 days; also recorded: not shown to be long-lasting"}, {"measurement": "tumor growth after immunization with drug-treated cells and re-challenge", "setting": "EMT6 mouse model; cells treated in vitro, injected into right flank, re-challenge 10 days later, N=4 control, 5 experimental", "value": "delayed tumor growth as compared to control; also recorded: rejected the tumors after re-challenge"}, {"measurement": "intratumoral Neuropilin-1", "setting": "[1]", "value": "increases intratumoral Neuropilin-1; also recorded: increased Neuropilin-1 infiltrate inside the tumor bed"}, {"measurement": "intratumoral Neuropilin-1", "setting": "[1]; listed as Panobinostat", "value": "enhances intratumoral Neuropilin-1 infiltrate"}, {"measurement": "tumor growth", "setting": "[1]", "value": "significantly decreases the tumor growth"}, {"measurement": "tumor growth", "setting": "[1]; listed as Panobinostat", "value": "delays tumor growth"}, {"measurement": "upregulation of MHC-I", "setting": "MHC-I on ER+ MCF7 cells", "value": "top candidate to upregulate MHC-I"}]}]}
